## Library screen at single concentrations

Data taken from ChEMBL document CHEMBL3988442, “University of Dundee, Small-Polar-MMV Screening Library” (2021).

The filed quantity is “Percent Effect” (%).
The record does not define 0% and 100%; most values in the screen are far below 50% and negative numbers occur (in some assays of this library far below -100).
This is an unselected part of the compounds tested.
Two or more numbers in one place are separate tests of the same structure; such repeats can differ widely.

Mtb glucose medium: 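Phenotypic screen: M. tuberculosis growth, glucose 7H9 medium, 3 days; the read-out is not stated. Concentration: 50 µM. The record gives no direction; compounds that gave an IC50 in retests scored well above the rest, so higher reads as more growth inhibition. About 69,000 compounds were tested under these conditions; 1.1% (about 760) showed 50% or more at least once.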
Mtb cholesterol medium: 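Growth of Mycobacterium tuberculosis over 4 days (cholesterol / DPPC medium with tyloxapol); the read-out is not stated. Compounds at 50 µM. The record gives no direction; compounds that gave an IC50 in retests scored well above the rest, so higher reads as more growth inhibition. About 69,000 compounds were tested under these conditions; 0.54% (about 370) showed 50% or more at least once.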

compound | Mtb glucose medium | Mtb cholesterol medium
CCNC(=O)N1CC2=CC(C)(C)COc3ccc(OC)c(c32)C1 | 36.74 | 34.31
CCc1cc(C(F)(F)F)n2nc(C3CCCN3C3CCSCC3)cc2n1.O=C(O)CC(O)(CC(=O)O)C(=O)O (configuration not stated) | 22.79 | 22.08 & 13.8
Cc1ccc(CN(C)Cc2nc3c(cnn3C)c(=O)[nH]2)o1 | 0.877 | 5.689
Cc1cc(C2CCCN2C(=O)CN2CC3(CCNCC3)OC2=O)on1 (configuration not stated) | -1.816 & -6.317 | -8.868
CNC(=O)c1cccc(CNC(=O)C2CC(=O)N(CCN(C)C)C2)c1 (configuration not stated) | -2.955 | -9.657
COCCNC(=O)Nc1ccc(-n2cncn2)c(C(F)(F)F)c1 | 3.692 | -6.733
CCCc1nnc(C(=O)N(C)Cc2ccc(OC)cc2)o1 | 7.786 | 19.27
CCc1nnc(C(C)N2CCc3cncnc3C2)o1 (configuration not stated) | 15.73 | 4.585
Cc1cc(C)nc(C2CCN(c3ccncn3)C2)n1 (configuration not stated) | 14.51 | 5.697
[H][C@]12CN(Cc3ccccc3Br)C[C@]1([H])OCC(=O)N2 | 0.353 | -6.369
CCN(C)c1ncnc2c1CCN(C(=O)c1ccsc1)CC2.O=C(O)C(F)(F)F | -2.028 & 1.921 | -13.37
Cc1ccc(CN2CCNC(C(=O)NC3CC3)C2)cc1C (configuration not stated) | -10.82 & 11.99 | 20.09
COc1ccnc(N2CCC(OCCN3CCCCC3)C2)n1 (configuration not stated) | 3.13 | -17.52
Cc1ncc(C(=O)NCCNc2ncccc2C#N)s1 | -22.52 | -28.66
CS(=O)(=O)Cc1cccc(C(=O)N2CCCC(n3cccn3)C2)c1 (configuration not stated) | -12.43 | -29.69
CCCc1nc(C)c(C(=O)NCCNc2ncccc2C#N)s1 | -12.56 | -30.29
Cc1nc[nH]c1CN1CCC2(CC1)CC(Nc1ncccn1)CO2.O=C(O)C(F)(F)F (configuration not stated) | 18.67 | 5.104
CN1CCCCCC1C(=O)N1CCCN(c2ccccc2)CC1 (configuration not stated) | -1.996 | -37.13
CN(C)[C@@H]1CN(Cc2ccccc2O)C[C@H]1c1cn(C)c2ccccc12.Cl | 28.15 | 8.716 & 21.91
NCC1CN(Cc2cn(CCC(N)=O)c3ccccc23)CCO1 (configuration not stated) | -4.358 & -2.181 | -10.23 & -5.903
Cc1nc[nH]c1CN1CCn2nc(CN3CC[C@H](F)C3)cc2C1 | 25.93 | 18.43
Cc1ccc(C(C(=O)NCCc2nc(C)cc(C)n2)N(C)C)cc1 (configuration not stated) | 8.47 | 8.844 & -4.667
CC(=O)N(Cc1ncc(C)o1)C1CCN(Cc2noc(C)n2)C1 (configuration not stated) | -9.047 | -1.758
O=C(C1CCCC1)N1CCCC2(CCN(c3cnccn3)CC2)C1.O=C(O)C(F)(F)F | 20.34 | 8.246
COc1ccc(S(=O)(=O)NC(=O)c2ccccc2F)cc1OC | -21.18 | 3.635
CCC(CC)N(Cc1ccc2c(c1)OCO2)C(=O)c1ccc(=O)n(C)c1 | -12.68 | -25.24
CCc1n[nH]c(C(=O)NCCn2ccnc2C)c1C | 2.195 & -8.801 | 14.32
CSCc1noc(CNC(=O)[C@H]2CNC[C@@H](C(=O)N3CCCC3)C2)n1 | -9.473 & -3.014 | 6.394
COc1ccccc1OCC(=O)n1ncc(C#N)c1N | -31.64 & -9.225 | -15.05
O=C(CCOc1ccccc1)N1CCC(Nc2cccnn2)CC1 | 18.75 | -4.595
O=C(NCCOc1ncc(Cl)cc1Cl)c1ccoc1 | 8.201 | 13.46 & 1.036
CC(C)n1cc(C(=O)NCCCn2ccnc2)c2n[nH]c(=O)c-2c1 | 15.39 | 16.65
[H][C@@]12CCN(C(=O)CCOC)C[C@]1([H])OCCN(c1ccsc1)C2=O | 2.233 & -9.588 | 5.119
CC(=O)N[C@@H]1CN(C(=O)c2cccc(C)c2)C[C@H]1O | -26.89 | -11.34 & -1.915
CCn1nc(C)c(NC(=O)CN(C)C(C)c2ccon2)c1C (configuration not stated) | -7.626 | -4.394
Cc1nc2c(c(=O)[nH]1)CCN(C(=O)c1[nH]nc3c1CC(C)CC3)C2 (configuration not stated) | -48.96 | -39.49
O=c1cc2c(nn1CN1CCN(c3cccc(Cl)c3)CC1)CCC2 | 20.09 | 2.743
CC1(Cc2cccnc2)NCCc2[nH]cnc21 (configuration not stated) | -44.87 | -31.21
CN1CCN(C[C@@H]2CN(C(=O)CC3CCCCC3)C[C@@H]2CO)CC1 | 6.309 | 1.33
[H][C@@]12C[C@@H](c3nc(C)no3)CN(Cc3ccoc3)[C@]1([H])CCO2 | -0.7437 | -6.254
CN(C(=O)Nc1nncs1)C1CCN(c2ccccc2Cl)C1=O (configuration not stated) | -3.513 | 3.258
O=C(c1cccnc1O)N1CCCN(c2cccnn2)CC1 | 17.24 | 15.74
Cc1cs/c(=N\C(=O)Cn2nc(N3CCSCC3)ccc2=O)[nH]1 | 3.752 & -25.41 | 1.357
Cc1nn(C)c2cn(CC(=O)N3CCc4ccccc4C3)nc12 | -9.282 | -7.82
CCC(=O)N1CCc2[nH]cnc2C12CCN(CC1CCOC1)CC2 (configuration not stated) | -5.813 | 2.581
Cc1ccc(C(=O)N2CCCC(Cn3cc(C(C)(C)N)nn3)C2)s1 (configuration not stated) | -11.98 | 0.3685
[H][C@@]12CCC(=O)N(CCNC)[C@]1([H])CCN(c1cnc3ccccc3n1)C2 | 7.367 & -23.08 | 12.31
COCCN1CCC2(CCCN(c3ncc(F)cn3)C2)C1 (configuration not stated) | 8.548 & -5.044 | 0.5122

For reference, 3 entries once more:

* CC(=O)N(Cc1ncc(C)o1)C1CCN(Cc2noc(C)n2)C1 (configuration not stated) : Mtb glucose medium: -9.047%; Mtb cholesterol medium: -1.758%
* CCCc1nnc(C(=O)N(C)Cc2ccc(OC)cc2)o1 : Mtb glucose medium: 7.786%; Mtb cholesterol medium: 19.27%
* CCCc1nc(C)c(C(=O)NCCNc2ncccc2C#N)s1 : Mtb glucose medium: -12.56%; Mtb cholesterol medium: -30.29%